Laboratory results taken from patent publication US20110319318A1, “COVALENT MILK PROTEIN/ISOTHIOCYANATE COMPLEXES” (NESTEC S.A., priority 2009, published 2011).

Assay: Pungency sensory scoring by eight subjects
Format: in vivo
Conditions: scale 0 to 10; 0.5 mM BLG + 0.5 or 1 mM AITC versus AITC alone; pH 7.0, heated 15 min 85° C.

BLG-AITC covalent complexes: covalent complexes of β-lactoglobulin and allyl isothiocyanate, various AITC to BLG molar ratios
pungency by in mouth tasting (nose-clip): reduced significantly the pungency | pungency by sniffing: reduced significantly the pungency
